# Experimental data taken from paper PMC8110786.
# Sequences of proteins named here, by UniProt entry; tags and fusion partners are left off.
# UniProt Q9UNF0: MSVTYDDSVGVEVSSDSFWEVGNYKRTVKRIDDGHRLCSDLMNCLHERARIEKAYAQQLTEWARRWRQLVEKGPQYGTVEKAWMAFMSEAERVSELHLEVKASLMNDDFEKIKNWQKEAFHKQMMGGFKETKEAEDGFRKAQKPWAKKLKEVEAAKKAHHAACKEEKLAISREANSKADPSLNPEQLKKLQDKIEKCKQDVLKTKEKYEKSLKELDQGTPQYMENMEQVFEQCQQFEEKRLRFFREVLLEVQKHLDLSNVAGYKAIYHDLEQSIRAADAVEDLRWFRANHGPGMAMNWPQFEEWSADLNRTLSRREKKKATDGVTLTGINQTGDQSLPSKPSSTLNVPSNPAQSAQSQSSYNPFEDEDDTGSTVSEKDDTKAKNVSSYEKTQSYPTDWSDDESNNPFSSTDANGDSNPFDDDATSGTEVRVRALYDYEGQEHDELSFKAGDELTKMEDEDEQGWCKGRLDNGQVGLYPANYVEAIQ
# UniProt Q8N3F8: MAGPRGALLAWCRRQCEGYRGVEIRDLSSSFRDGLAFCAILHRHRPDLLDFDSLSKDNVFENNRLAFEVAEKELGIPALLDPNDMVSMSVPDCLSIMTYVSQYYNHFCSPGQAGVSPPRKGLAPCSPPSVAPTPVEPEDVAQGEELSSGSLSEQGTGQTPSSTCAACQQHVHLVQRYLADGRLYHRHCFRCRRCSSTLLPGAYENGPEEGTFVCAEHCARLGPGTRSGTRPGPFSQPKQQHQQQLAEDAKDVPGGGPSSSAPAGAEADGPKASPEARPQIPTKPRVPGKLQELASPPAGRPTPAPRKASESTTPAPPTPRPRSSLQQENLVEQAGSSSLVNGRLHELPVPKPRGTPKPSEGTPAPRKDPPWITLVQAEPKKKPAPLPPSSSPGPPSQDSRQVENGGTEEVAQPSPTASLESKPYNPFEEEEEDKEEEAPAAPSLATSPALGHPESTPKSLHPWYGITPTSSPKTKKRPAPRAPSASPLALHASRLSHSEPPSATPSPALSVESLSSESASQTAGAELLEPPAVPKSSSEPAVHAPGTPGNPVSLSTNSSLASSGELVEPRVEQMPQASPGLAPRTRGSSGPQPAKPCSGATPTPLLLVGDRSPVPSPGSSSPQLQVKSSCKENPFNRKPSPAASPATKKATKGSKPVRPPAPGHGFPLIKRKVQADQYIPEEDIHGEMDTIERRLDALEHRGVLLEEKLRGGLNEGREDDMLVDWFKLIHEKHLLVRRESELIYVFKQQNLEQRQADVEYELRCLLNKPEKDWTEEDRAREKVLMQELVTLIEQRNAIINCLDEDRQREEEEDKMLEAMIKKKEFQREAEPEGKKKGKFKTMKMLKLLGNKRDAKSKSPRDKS
# Results are given in words; binding and its absence hold for the method and conditions named. Binding seen in cells or lysates may run through a third protein. Some entries that bind do so weakly or less than the wild type. For part of these data: Where a sequence is shown, tags or fusion partners need not be part of it.
# T1: EHD4-GFP (human) (UniProt Q9H223)
# T1 sequence: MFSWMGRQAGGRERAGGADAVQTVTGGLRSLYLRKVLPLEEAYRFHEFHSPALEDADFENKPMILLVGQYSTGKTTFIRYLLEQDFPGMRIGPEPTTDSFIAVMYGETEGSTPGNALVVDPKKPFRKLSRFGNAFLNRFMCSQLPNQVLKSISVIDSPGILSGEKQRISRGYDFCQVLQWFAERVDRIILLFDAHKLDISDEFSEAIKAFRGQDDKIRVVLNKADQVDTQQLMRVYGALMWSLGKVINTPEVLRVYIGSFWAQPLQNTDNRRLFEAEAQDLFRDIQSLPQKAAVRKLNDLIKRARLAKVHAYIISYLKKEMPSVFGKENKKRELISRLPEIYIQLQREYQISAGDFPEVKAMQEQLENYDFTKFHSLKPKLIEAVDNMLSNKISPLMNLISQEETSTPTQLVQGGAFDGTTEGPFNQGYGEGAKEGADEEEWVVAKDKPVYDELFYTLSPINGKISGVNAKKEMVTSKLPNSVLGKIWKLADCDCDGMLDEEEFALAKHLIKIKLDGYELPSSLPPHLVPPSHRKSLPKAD
# B1: EHD4 (endogenous) (protein, UniProt Q9H223 1-541)
# chain: T1 sequence
# Key:
# PACSIN2-GFP = PACSIN2-GFP (UniProt Q9UNF0); assay: co-IP; GFP-Trap magnetic agarose beads (Chromotek) on lysates of HUVECs expressing GFP, PACSIN2-GFP or EHD4-GFP, or untransduced; lysis buffer 20 mM HEPES pH 7.4, 150 mM NaCl, 1.7 mM CaCl2, 0.5% NP-40; overnight at 4 °C; detected by Western blot
# EHD4-GFP (human) = target: T1, EHD4-GFP (human); assay: as above
Molecule,binding (PACSIN2-GFP),binding (EHD4-GFP (human))
MICAL-L1 (endogenous) (from UniProt Q8N3F8 1-863),binds,
PACSIN2 (endogenous) (from UniProt Q9UNF0 1-486),,binds
B1,binds,
